Data as given in publication PMC5066963.
No constants are given. Whether binding was seen depends on the method and setting. Binding calls can cover weak binding; strength is not graded here. For some assays here: Binding seen in cells or lysates may run through a third protein. One block for each molecule: values may come before it.

Chains of the proteins cited; added tags and fusions are not shown. Lines headed by an entry give the natural chain unless they say otherwise; changes in a name come on top.
UniProt O13619: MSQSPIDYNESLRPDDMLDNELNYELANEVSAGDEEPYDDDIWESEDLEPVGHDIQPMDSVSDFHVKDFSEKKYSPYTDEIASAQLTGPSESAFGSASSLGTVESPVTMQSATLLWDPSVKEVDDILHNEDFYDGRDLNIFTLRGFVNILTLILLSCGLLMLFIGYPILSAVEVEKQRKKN
UniProt Q10287: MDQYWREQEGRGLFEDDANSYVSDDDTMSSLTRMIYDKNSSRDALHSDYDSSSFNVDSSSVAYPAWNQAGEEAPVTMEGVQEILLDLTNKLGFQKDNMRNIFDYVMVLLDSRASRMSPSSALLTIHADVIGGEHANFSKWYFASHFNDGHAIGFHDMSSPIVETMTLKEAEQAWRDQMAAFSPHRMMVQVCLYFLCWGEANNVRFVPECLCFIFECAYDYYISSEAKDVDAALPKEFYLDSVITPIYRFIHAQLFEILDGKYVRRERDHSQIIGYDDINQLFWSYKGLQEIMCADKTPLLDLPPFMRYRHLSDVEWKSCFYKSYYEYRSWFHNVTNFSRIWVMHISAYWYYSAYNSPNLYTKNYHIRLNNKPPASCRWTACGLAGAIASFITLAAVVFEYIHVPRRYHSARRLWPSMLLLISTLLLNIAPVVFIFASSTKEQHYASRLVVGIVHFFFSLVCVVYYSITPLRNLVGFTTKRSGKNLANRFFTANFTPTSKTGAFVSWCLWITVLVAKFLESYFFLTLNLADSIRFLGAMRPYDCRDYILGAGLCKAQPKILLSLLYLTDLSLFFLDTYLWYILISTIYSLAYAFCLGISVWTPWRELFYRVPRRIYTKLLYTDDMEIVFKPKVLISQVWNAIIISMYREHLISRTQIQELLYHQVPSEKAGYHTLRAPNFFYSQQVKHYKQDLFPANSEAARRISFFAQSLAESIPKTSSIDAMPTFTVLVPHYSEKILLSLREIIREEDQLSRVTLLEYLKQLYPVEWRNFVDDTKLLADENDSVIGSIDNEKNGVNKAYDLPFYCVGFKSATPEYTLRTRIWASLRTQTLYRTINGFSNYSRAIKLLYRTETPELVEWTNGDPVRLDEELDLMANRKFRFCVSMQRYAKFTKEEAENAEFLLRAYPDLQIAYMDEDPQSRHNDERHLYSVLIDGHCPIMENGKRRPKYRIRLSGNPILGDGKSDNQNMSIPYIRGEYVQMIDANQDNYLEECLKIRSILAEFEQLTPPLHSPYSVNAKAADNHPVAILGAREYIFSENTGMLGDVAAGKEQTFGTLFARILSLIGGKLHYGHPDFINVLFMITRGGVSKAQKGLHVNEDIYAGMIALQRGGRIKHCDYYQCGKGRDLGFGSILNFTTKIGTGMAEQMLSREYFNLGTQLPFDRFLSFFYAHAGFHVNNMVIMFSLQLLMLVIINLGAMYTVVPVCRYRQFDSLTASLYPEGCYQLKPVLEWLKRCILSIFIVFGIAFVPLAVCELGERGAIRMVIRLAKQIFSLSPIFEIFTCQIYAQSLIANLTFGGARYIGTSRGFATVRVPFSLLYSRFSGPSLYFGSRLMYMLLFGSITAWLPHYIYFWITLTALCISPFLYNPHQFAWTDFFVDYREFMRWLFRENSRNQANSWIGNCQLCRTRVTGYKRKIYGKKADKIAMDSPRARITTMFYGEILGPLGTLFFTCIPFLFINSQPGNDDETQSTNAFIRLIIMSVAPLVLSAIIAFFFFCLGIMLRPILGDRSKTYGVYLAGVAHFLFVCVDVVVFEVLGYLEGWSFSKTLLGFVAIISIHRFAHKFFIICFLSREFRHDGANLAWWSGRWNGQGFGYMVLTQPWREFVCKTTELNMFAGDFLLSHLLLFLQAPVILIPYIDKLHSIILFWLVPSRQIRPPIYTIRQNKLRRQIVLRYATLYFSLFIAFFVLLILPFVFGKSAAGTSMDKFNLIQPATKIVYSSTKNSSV

How the values were obtained:
[1] = biological target: hyg^r-GFP-Sbg1p (S. pombe) (UniProt O13619); assay: co-IP; solubilized membrane proteins of S. pombe strains (50 mM Tris-HCl pH 7.5, 5 mM EDTA, 200 mM NaCl, 0.5% Tween 20) immunoprecipitated with anti-GFP antibody and protein A Sepharose at 4°C; blotted with anti-HA
[2] = biological target: Sbg1 TMΔ (residues 1-148) (S. pombe) (UniProt O13619); assay: two-hybrid; genes or fragments in pMM5 and pMM6 plasmids, transformed into SGY37 (MATa) and YPH500 (MATalpha) yeast strains

B2: Cdc15p (protein, UniProt Q09822 1-927)
chain: MEVNGVSQSEAAPYVTKSSVKFRDNFWGSEDAGMDALMSRTKSSLSVLESIDEFYAKRASIEREYASKLQELAASSADIPEVGSTLNNILSMRTETGSMAKAHEEVSQQINTELRNKIREYIDQTEQQKVVAANAIEELYQKKTALEIDLSEKKDAYEYSCNKLNSYMRQTKKMTGRELDKYNLKIRQAALAVKKMDAEYRETNELLLTVTREWIDRWTEVCDAFQHIEEYRLEFLKTNMWAYANIISTACVKDDESCEKIRLTLENTNIDEDITQMIQNEGTGTTIPPLPEFNDYFKENGLNYDIDQLISKAPSYPYSSSRPSASASLASSPTRSAFRPKTSETVSSEVVSSPPTSPLHSPVKPVSNEQVEQVTEVELSIPVPSIQEAESQKPVLTGSSMRRPSVTSPTFEVAARPLTSMDVRSSHNAETEVQAIPAATDISPEVKEGKNSENAITKDNDDIILSSQLQPTATGSRSSRLSFSRHGHGSQTSLGSIKRKSIMERMGRPTSPFMGSSFSNMGSRSTSPTKEGFASNQHATGASVQSDELEDIDPRANVVLNVGPNMLSVGEAPVESTSKEEDKDVPDPIANAMAELSSSMRRRQSTSVDDEAPVSLSKTSSSTRLNGLGYHSRNTSIASDIDGVPKKSTLGAPPAAHTSAQMQRMSNSFASQTKQVFGEQRTENSARESLRHSRSNMSRSPSPMLSRRSSTLRPSFERSASSLSVRQSDVVSPAPSTRARGQSVSGQQRPSSSMSLYGEYNKSQPQLSMQRSVSPNPLGPNRRSSSVLQSQKSTSSNTSNRNNGGYSGSRPSSEMGHRYGSMSGRSMRQVSQRSTSRARSPEPTNRNSVQSKNVDPRATFTAEGEPILGYVIALYDYQAQIPEEISFQKGDTLMVLRTQEDGWWDGEIINVPNSKRGLFPSNFVQTV
binding [2]: binds

B4: Fic1p (protein, UniProt O94701 1-272)
chain: MSKNPLGTLVVRIWKAKNLPNKALVGKQSPYCVCRVGEVVKRTQTDKRSGQEPSWNAVLEFNIPSESYHIMKITVFHEGFRKHPHLIGDTVLSFEKAMKEELQSEWYELKNEFQFAGELSVQFKFIPTDPLYFDRASSKPVLQFPYSSVAALTPVPKKPSKPSKPRKKVPVSHPLPPTPPSREEHVSVPRESSLFTYEDDPLPSFPSPYMVDDYYTQDVFVSDNVNDYSYGVQNPTNPRLSVEDYDANHSSLPPVPPPHLILPTASSSQIFH
binding [2]: no binding

Continued, values first:

binding [1]: binds
Molecule: HA-Bgs1p (from UniProt Q10287 1-1729)

binding [2]: binds
B1: Imp2p (protein, UniProt Q10199 1-670)
chain: MSQQLSFNASSAKPDKSFSNYFWGANDEGYHALLSRFSDVKHINEELRSFYHERANIEEDYAKRMAKLSRTTFSSLETGCLKESVQVMKAEVDNMAKSHLQISQLLQDDVENAFTRYAASLKDKKKMIVSGIEKVHKDKLSKHQALVKAQDKYHYLCKKVNYYVSQQNMLFGKELEKNNAKLNKTQNAITASSSDYQSAVAAVRDSYARWTNEWRSTCDKLQDIEEERRHFLKSVMWTFTLLISRSCFNDDQACERIRKNLEQCSVSQDVLEFIDAKSTGTGIPQPPKFYDYYKGEVPDDSVELVQANFQRAQTKIENDNMPLNRPYVLSATARNESSFENTLPNTPSAIQSLTTVSSNSSQNGRSSPKKSFLSKFKLTSRPSTPNVGNTAPDALSSPRNDSPLTSAADEQMKHLSLQEEPKQNPTPAAPGAFPNSNTLPPRYNELGSLPSPNSVSFTEDSRPNVNTPSRRQQIQEEFGSVLQMENRAVSPVYDSRKNGSRSSFTLRKSRSPKRPSSSLSQNASRLPRSLTPGNLEPNYDFGVRVDPASGTAPTDDEPYTDRDSSFVDDTINTKATGNTSNRLSLPAYPTDGGDTSIDNPTSTDGQRILGYVSALYDYDAAIPEEISFRKGDTIAVLKLYEDGWWEGFVVGEDDHNRGQFPSNFVREIEV

binding [2]: binds
B3: Rga7p (protein, UniProt O94466 1-695)
chain: MLSAPSSSTTPASPPTSPPNTTSSDDFAVLKEPKVEAILNSELGLAILNDRIKDYLLTCKELAGFFKKRSILEEESGKNLQKLAKSYLETFQSKHHSPQSFSASVITSMEIHEQLANHSLTLQKTLSAFSDQVIEFHKNAERKRKSIKEYAKKQENAYLEAVMQMDKSKSRFKGAETEYNRALDNKNTGDSQKKVGFFKPKSNAQLTKLEDEARLKAENAESDMHSKIENAQNVQKQLLCIHRPNYIKQFFSLQREIESSLIANYLRYTKLCESNTLLNGLTIRPQKPTPTNCGLQHALDNINANTDFVQYVLHASIKHEDNKNPTDASKTKIIQPPSSYGTGSSAGKTNPPVNPTIKVTAAIPSPLQNTNPAPSTFPNPSVASPAFPNSSTSNPSTAPASASPLASTLKPSTANDTNGSSSSSSSNPRTSSPLASNAENKPPVAQQSPPVLLPTLPPIQTTTIQTSREVAPPPSSINSNRAASPFRPTSVSPQPSSPTKSLLFGARLDAIILREHSNIPNIVMQCTSQVENFGLNLQGIYRVPSSSARVNMLRSQFENNPLLQLHTPEDYENDVHAVADLLKIFFRELREPLIPDNHQRDFIDAGNVEDESRRRDAVHRAINDLPDANYSTIRHLTIHLAKIKENSDVNKMSTNNLAIIWGPTIIKQATIPEISSFSRTIEILIDYCFTIFDYD
